Source: patent EP4397674A1, “CASPASE-2 INHIBITOR COMPOUNDS” (Kintsugi Therapeutics S.L., priority 2023, dated 2024)
At least one structure is not confirmed: it was looked up by name or label, or the drawing left a doubt.

By UniProt entry, the sequences of proteins in these tests, tags left out. Residues count along the entry.
UniProt Q14790, 385-479 limits assumed: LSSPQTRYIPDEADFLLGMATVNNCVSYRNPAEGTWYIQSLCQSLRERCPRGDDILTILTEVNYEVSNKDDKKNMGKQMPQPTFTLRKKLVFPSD
UniProt Q14790, 217-374 limits assumed: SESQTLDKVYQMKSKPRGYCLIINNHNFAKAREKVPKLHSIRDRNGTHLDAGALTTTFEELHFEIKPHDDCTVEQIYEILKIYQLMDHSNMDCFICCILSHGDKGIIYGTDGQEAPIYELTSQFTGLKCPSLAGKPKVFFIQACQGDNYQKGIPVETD

Columns and labels:
caspase-8 = target: T1, caspase-8 (Homo sapiens, UniProt Q14790); test: Enzymatic kinetic studies, determination of Ki and IC50 inhibition parameters (Morrison equation); assay type: biochemical; conditions: substrate Ac-LEHD-ACC (100uM); for Ki: Morrison equation; for IC50: calculated as IC50 = Ki × (1+[S]/Km)
T1 construct: made in house

caspase-2 = target: T2, caspase-2 (Homo sapiens, UniProt P42575); test: as above; assay type: biochemical; design: made in house; conditions: substrate NH-ldc-hGlu-Thr(Bzl)-Ser-Asp-ACC (50uM); for Ki: Morrison equation; for IC50: calculated as IC50 = Ki × (1+[S]/Km)
T2 sequence (P42575 170-333 limits assumed): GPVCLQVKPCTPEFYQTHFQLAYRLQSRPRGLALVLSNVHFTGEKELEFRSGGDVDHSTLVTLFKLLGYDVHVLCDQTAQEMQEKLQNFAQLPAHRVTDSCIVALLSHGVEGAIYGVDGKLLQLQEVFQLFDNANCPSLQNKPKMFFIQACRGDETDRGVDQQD
T2 sequence (P42575 348-452 limits assumed): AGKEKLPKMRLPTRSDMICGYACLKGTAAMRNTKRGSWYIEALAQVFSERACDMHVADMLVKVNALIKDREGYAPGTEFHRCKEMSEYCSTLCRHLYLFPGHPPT

Row | Structure (SMILES) | Ki (caspase-8) | IC50 (caspase-8) | Ki (caspase-2) | IC50 (caspase-2)
1 | Cc1cccc(C)c1C(=O)OCC(=O)[C@H](CC(=O)O)NC(=O)[C@H](CO)NC(=O)[C@@H](NC(=O)[C@H](CCCC(=O)O)NC(=O)[C@@H]1Cc2ccccc2N1)[C@@H](C)OCc1ccccc1 [NH-Idc-hGlu-Thr(Bzl)-Ser-Asp-AOMK, reference compound] | 6.2 nM | 46.2 nM | 0.7 nM | 7.9 nM
2 | Cc1cccc(C)c1C(=O)OCC(=O)[C@H](CC(=O)O)NC(=O)[C@H](CCCCN)NC(=O)[C@@H](NC(=O)[C@H](CCCC(=O)O)NC(=O)[C@@H]1Cc2ccccc2N1)[C@@H](C)OCc1ccccc1 [NH-Idc-hGlu-Thr(Bzl)-Lys-Asp-AOMK] | 6.7 nM | 49.8 nM | 0.8 nM | 8.8 nM
3 | Cc1cccc(C)c1C(=O)OCC(=O)[C@H](CC(=O)O)NC(=O)[C@H](CCN)NC(=O)[C@@H](NC(=O)[C@H](CCCC(=O)O)NC(=O)[C@@H]1Cc2ccccc2N1)[C@@H](C)OCc1ccccc1 [NH-Idc-hGlu-Thr(Bzl)-Dab-Asp-AOMK] | 209 nM | 1540 nM | 1.1 nM | 12 nM
4 | Cc1cccc(C)c1C(=O)OCC(=O)[C@H](CC(=O)O)NC(=O)[C@H](CCCN)NC(=O)[C@@H](NC(=O)[C@H](CCCC(=O)O)NC(=O)[C@@H]1Cc2ccccc2N1)[C@@H](C)OCc1ccccc1 [NH-Idc-hGlu-Thr(Bzl)-Orn-Asp-AOMK] | 43.3 nM | 320 nM | 0.7 nM | 7.4 nM
